From the supplement of paper PMC10727501
Some of the results follow. Repeats in this data set agree poorly, so a single value says little.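 Free-swimming zebrafish larvae were assessed for O-bend response probability to dark flashes (naive: first five; training: remaining flashes across four 60-flash blocks; test: later 60-flash block) and for OMR turning toward alternating leftward/rightward LED motion. Six treated larvae were compared against sixty 0.1% DMSO controls; hits required |SSMD|≥2.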

tested on: Danio rerio larvae (5 dpf, TLF); assay: Prob-Train (SSMD vs DMSO vehicle); higher = higher than vehicle (e.g. higher dark-flash O-bend response probability, or better optomotor performance); conditions: 10 µM; pre-incubation: 30-90 min

Structure (SMILES) | Prob-Train
Cl.O=C1CC[C@@]2(O)[C@H]3Cc4ccc(O)c5c4[C@@]2(CCN3CC2CC2)[C@H]1O5 [Naltrexone HCl] | -1.39
CN1CCc2cccc3c2C1Cc1ccc(O)c(O)c1-3.CN1CCc2cccc3c2C1Cc1ccc(O)cc1-3 (stereo not drawn) [R-(-)-Apomorphine HCl Hemihydrate] | -1.89
C#C[C@@]1(O)C=C[C@H]2[C@@H]3CCC4=CC(=O)CC[C@@H]4[C@@H]3CC[C@@]21CC [Gestodene] | -1.31
Cc1cccc(C)c1NC1=NCCCS1.Cl [Xylazine HCl] | -0.627
CC(C)NCC(O)c1ccccc1Cl.Cl (stereo not drawn) [Clorprenaline HCl] | 0.234
CC(O)(CS(=O)(=O)c1ccc(F)cc1)C(=O)Nc1ccc(C#N)c(C(F)(F)F)c1 (stereo not drawn) [Bicalutamide] | 0.134
CC[C@@H]1[C@@H](C)O[C@@](O)([C@@H](C)[C@H](O)[C@H](C)[C@H]2OC(=O)/C=C/C=C/[C@H](C)[C@H]([C@@H](C)[C@@H](O)[C@H](C)[C@@]3(O)C[C@@H](O[C@H]4C[C@H](O)[C@H](O)[C@H](C)O4)[C@H](CC)[C@@H](C)O3)OC(=O)/C=C/C=C/[C@H]2C)C[C@H]1O[C@H]1C[C@H](O)[C@H](O)[C@H](C)O1 [Elaiophylin] | 0.2
CCOc1ccccc1-n1c(C(C)N2CCN(C(=O)COc3ccc(Cl)cc3)CC2)nc2ccccc2c1=O (stereo not drawn) [Erastin] | -0.537
